In PubChem BioAssay AID504444 (National Center for Advancing Translational Sciences (NCATS), 2011):
Values joined by “and” are separate entries in the source; they are usually repeats but may differ in a detail not shown here. Identical values can stand only once. About 7,500 (2.1%) of roughly 360,000 compounds were called active. Inconclusive means that the source gave no clear call. Such entries were picked first, then a sample of the others. Calls follow the shape of the dose curve; as a rule, active = well fitted inhibition curve with a large enough effect; inconclusive = small, poorly fitted or top-dose-only effect, or effect the other way; inactive = flat fitted curve, though single readings scatter. Potencies of inconclusive entries are doubtful fits and often do not repeat.

Assay: Nrf2 qHTS screen for inhibitors; also: nearly all actives have a fitted effect of over 60% in size
Conditions: A549 ARE-Fluc reporter, luciferase luminescence, 18-24 h; series mostly up to 46 µM
Procedure, shortened: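 Quantitative HTS in A549 cells stably bearing an antioxidant response element-firefly luciferase construct. Inhibition of Nrf2-driven transcription was scored by luminescence after 18-24 h of compound exposure at 37 °C.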
Potency is read from the fitted curve at half-maximal effect.

| SMILES | Potency |
| --- | --- |
| CCCCOc1ccc(-c2nnc(-c3ccco3)o2)cc1 | inconclusive: 0.651 µM [activator, partial curve] |
| O=C(Nc1ccc(N2CCN(c3ncccc3C(F)(F)F)CC2)nc1)c1cccs1 | active: 20.6 µM |
| CCc1ccc2[nH]c(=O)c(CN(Cc3ccco3)C(=S)NCC3CCCO3)cc2c1 (stereo not drawn) | inconclusive: 29.1 µM [falling, single point] |
| COc1ccc(-n2c(SCc3nc(-c4ccc(C)cc4)no3)nnc2-c2ccccc2)cc1 | inconclusive: 20.6 µM [falling, single point] |
| CC#CCN1c2ccccc2[C@]23C[C@@H](C(=O)OC)N(C(=O)c4cc(C)oc4C)C2=NC(C(=O)OC)=C(C(=O)OC)[C@H]13 | active: 16.4 µM |
| COCCN=C1N[C@@H](c2cccc(C(F)(F)F)c2)C(C(=O)OC)=C(C)N1Cc1ccccc1 | inactive |
| CC(C)=CCC/C(C)=C/CNC(=O)C[C@H]1C[C@H](C(=O)N2CCOCC2)[C@@]2(CCC3CCCC3)c3[nH]c4cc(-c5ccco5)ccc4c3CCN2C1=O | inconclusive: 18.4 µM [falling, single point] |
| CN(C)c1cccc(C(=O)NCc2ccccc2Cl)c1 | inconclusive: 23.1 µM [activator, single point] |
| COc1ccc(-c2cc(C(=O)N3CCCCC3)no2)cc1OC | inconclusive: 23.1 µM [activator, single point] |
| CCOC(=O)c1ccc(NC(=O)CN(Cc2ccc(C)cc2)S(=O)(=O)c2ccc(C)cc2)cc1 | inconclusive: 23.1 µM [falling, single point] |
| O=C(/C=C\c1ccco1)c1ccc(NC(=O)c2ccco2)cc1 | inconclusive: 9.2 µM [activator, partial curve] |
| Cc1cc2ncn(C(=O)c3cc(-c4ccccc4)nc4ccccc34)c2cc1C | inactive |
| Cn1cccc1Cc1nnc(SCC(=O)NCc2ccco2)n1-c1ccc(F)cc1 | inconclusive: 6.51 µM [activator, single point] |
| O=C(Nc1ccc(Br)cc1)c1ccc(F)c(S(=O)(=O)NC2CCCCCC2)c1 | inconclusive: 5.8 µM [falling, full curve, poor fit] |
| O=C(NC1C2CC3CC(C2)CC1C3)c1ccc2c(c1)OCO2 (stereo not drawn) | inactive |
| O=C(c1ccc(Cl)cc1Cl)C1(n2cncn2)Oc2ccccc2C1O (stereo not drawn) | active: 10.3 µM |
| O=C(COc1ccccc1)Nc1ccccc1C(=O)NCc1ccco1 | inconclusive: 20.6 µM [activator, single point] |
| O=C(CSc1nnc(Cc2cccs2)n1-c1ccccc1)NCc1ccc2c(c1)OCO2 | inconclusive: 25.9 µM [activator, single point] |
| CCN(Cc1ccccc1)C(=O)CN1C(=O)NC(CC)(c2ccc(F)cc2)C1=O (stereo not drawn) | inactive |
| COc1ccc(Cl)cc1C(=O)N(Cc1nc(-c2cccc(C)c2)no1)C(C)C | inconclusive: 16.4 µM [falling, single point] |
| COc1ccccc1CNC(=O)c1ccc(Cl)c(S(=O)(=O)N2CCCC2)c1 | inconclusive: 25.9 µM [falling, single point] |
| Nc1nnc(Sc2ccc(Cl)cc2[N+](=O)[O-])s1 | inactive |
| Cc1cc2oc(=O)cc(CN3CCN(S(=O)(=O)c4cccs4)CC3)c2cc1C | inconclusive: 29.1 µM [falling, single point] |

| SMILES | Potency |
| --- | --- |
| C/C(=N\Nc1cccc([N+](=O)[O-])c1)c1ccccc1O | inconclusive: 29.1 µM [activator, single point] |
| CCOc1ccc(NC(=NCc2ccc3c(c2)OCO3)SC2CC(=O)N(c3ccc(C(=O)O)cc3)C2=O)cc1 (stereo not drawn) | inconclusive: 29.1 µM [falling, single point] |
| Cc1cc(=O)oc2cc(OCC(=O)Nc3ccc(N4CCC(C)CC4)cc3)ccc12 | inactive |
| O=C(NNC(=O)C1CCCN(S(=O)(=O)c2cccc(F)c2)C1)C1CC1 (stereo not drawn) | inactive |
| Cc1cc(N2Cc3ccccc3C2)ccc1C=O | inconclusive: 10.3 µM [activator, single point] |
| COc1ccc(C)cc1NC(=O)COc1cc(=O)n(C)c2ccccc12 | inconclusive: 18.4 µM [activator, single point] |
| CCOC(=O)C1CCN(c2ncnc3c2oc2ccc(Br)cc23)CC1 | inconclusive: 0.231 µM [activator, partial curve] |
| O=C(NC(=S)Nc1ccc(N2CCCCC2)c(Cl)c1)c1cccs1 | inconclusive: 4.61 µM [activator, full curve, poor fit] |
| Cc1cccc(C(=O)N2CCCC(Nc3ccc(F)c(F)c3)C2)n1 (stereo not drawn) | inactive |
| COCCCNC1=C(Cl)C(=O)c2ccccc2C1=O | active: 25.9 µM |
| Cc1ccnc2nc(C(=O)OCC(=O)N(Cc3ccccc3)C(C)C)nn12 | inactive |
| Cc1ccc(NC(=O)c2nnn(Cc3ccccc3)c2N)cc1C | inconclusive: 2.06 µM [activator, full curve] |
| Cc1ccc(NC(=O)Cn2c(O)c(N=NC(=O)c3cc4ccccc4cc3O)c3ccccc32)cc1 | inconclusive: 18.4 µM [falling, single point] |
| Nc1n[nH]c(N)c1N=Nc1ccccc1F | inconclusive: 1.64 µM [activator, partial curve, poor fit] |
| OC(COCc1cccs1)CN1CCN(c2ccccc2Cl)CC1 (stereo not drawn) | inconclusive: 20.6 µM [falling, partial curve, poor fit] |
| CC1CCCCC12NC(=O)N(CC(=O)Nc1ccccc1F)C2=O (stereo not drawn) | inactive |
| CC1CN(C(=O)c2cc(S(=O)(=O)N3CCN(c4ccccc4)CC3)ccc2Cl)CC(C)O1 (stereo not drawn) | inconclusive: 20.6 µM [falling, partial curve] |
| CC(=O)Nc1ccc(NC(=O)c2cc(=O)c3ccccc3o2)cc1 | inconclusive: 7.31 µM [falling, partial curve] and inconclusive: 20.6 µM [falling, partial curve] |
| CN1/C(=C\C(=S)NC(=O)c2cccc(Br)c2)C(C)(C)c2ccccc21 | active: 20.6 µM |
| Cc1cc(-c2ccc(C)c(S(=O)(=O)Nc3cccc(C)n3)c2)on1 | inconclusive: 2.91 µM [falling, single point] |
| CN(CC(=O)Nc1ccc(Cl)cc1)C(=O)Cc1c(F)cccc1Cl | inconclusive: 1.03 µM [activator, full curve, poor fit] |
| CCc1ccc(-n2nnc(-c3nsc(NC(=O)c4ccccc4Cl)n3)c2C)cc1 | active: 18.4 µM |
| Cc1ccccc1-c1cc(C(=O)NCc2cccs2)n(CC2CC(c3cccnc3)=NO2)n1 (stereo not drawn) | active: 20.6 µM |

| SMILES | Potency |
| --- | --- |
| COCCn1c(-c2ccccc2)csc1=Nc1cccnc1 | inactive |
| O=C(N/N=C/c1ccc[nH]1)c1ccc(COc2cccc3cccnc23)cc1 | inconclusive: 5.8 µM [falling, full curve, poor fit] |
| Cc1ccc(CN(C(=O)c2cc3ccccc3oc2=O)C2CCS(=O)(=O)C2)cc1 (stereo not drawn) | inactive |
| O=C(Nc1ccccc1)N1CCCC(c2nc(-c3ccc(F)cc3)no2)C1 (stereo not drawn) | inconclusive: 29.1 µM [falling, single point] |
| CC(C)(C)OC(=O)Cc1nnc(-c2cc3ccccc3[nH]2)o1 | inconclusive: 1.84 µM [activator, full curve, poor fit] |
| CC1CCCN(S(=O)(=O)c2ccc(NC(=O)Cc3ccc(S(=O)(=O)N4CCOCC4)s3)cc2)C1 (stereo not drawn) | inconclusive: 18.4 µM [falling, single point] |
| COc1ccc(-c2nc3ccccc3c(=O)n2Cc2ccc(CNC(=O)CO)cc2)cc1COc1ccc(NC(C)=O)cc1 | inconclusive: 10.3 µM [falling, partial curve, poor fit] |
| Cc1ccc(-c2nc(-c3ccccn3)no2)cc1 | active: 2.06 µM |
| COc1ccccc1N1CCN(c2nc3ccccc3n3cnnc23)CC1 | inconclusive: 9.2 µM [activator, partial curve] |
| CCOC(=O)/C(=C\c1cn(C)c2ccccc12)[N+](=O)[O-] | inactive |
| Cc1cc(C)n(-c2cccc(Cl)c2C#N)n1 | inconclusive: 1.16 µM [falling, partial curve, poor fit] |
| CC(C)CNC(=O)COC(=O)C1c2ccccc2Oc2ccccc21 | inactive |
| C=CC[C@H](CC(=O)N(CCO)Cc1ccccc1)C(=O)N[C@@H](C)COC(=O)[C@@H](CC=C)Cc1ccc(F)cc1 | inconclusive: 0.731 µM [falling, full curve, poor fit] |
| O=C(NCC1COCCO1)c1ccc2nc(Cc3cccc(Cl)c3)oc2c1 (stereo not drawn) | inconclusive: 29.1 µM [activator, single point] |
| O=C(NNc1ccccc1F)c1cccs1 | inconclusive: 5.8 µM [activator, partial curve, poor fit] |
| O=C(Cc1ccc(Cl)cc1)NNC(=O)C(=O)NC1CCCCC1 | inconclusive: 0.164 µM [activator, full curve, poor fit] |
| Cc1cc(C)n2c(Nc3ccccc3)c(-c3ccc(C)o3)nc2n1 | inconclusive: 23.1 µM [activator, single point] |
| Cc1ccc2nc(N(CCCN(C)C)C(=O)c3ccco3)sc2c1 | inactive |
| COc1ccc(NC(=S)NNc2ccc(C(=O)O)cc2)cc1 | inconclusive: 14.6 µM [activator, partial curve] |
| O=C(Nc1c(-c2ccccc2)nc2ccccn12)c1ccccc1 | inactive |
| Cn1c(CNc2ccc(Br)cc2)nc2ccccc21 | inconclusive: 23.1 µM [activator, partial curve] |
| CCOC(=O)c1nc(Nc2ccccc2)c2ccccc2n1 | inconclusive: 7.31 µM [falling, partial curve] |
